Results reported in paper PMC7819943, “Rice protein-binding microarrays: a tool to detect cis-acting elements near promoter regions in rice”.
Some of the results follow.

Each sequence was assayed against T1, OsSMF1 (Oryza sativa, UniProt Q6ZLB0 1-436) (assay: protein-binding microarray (RPBM); PBS, 2% BSA, 51.3 ng/ul salmon testes DNA, 50 uM zinc acetate, 200 nM TF, 25 C, 1 h; high values mean tight binding). Details: protein: recombinant; tags: N-terminal polyhistidine and DsRed monomer fusion (pET32a); chain copies: 2; label: CyDye5-dUTP incorporated in the synthesized complementary strand; 3' TTTTT single-stranded linker to array surface; dsDNA, one strand shown.
T1 sequence: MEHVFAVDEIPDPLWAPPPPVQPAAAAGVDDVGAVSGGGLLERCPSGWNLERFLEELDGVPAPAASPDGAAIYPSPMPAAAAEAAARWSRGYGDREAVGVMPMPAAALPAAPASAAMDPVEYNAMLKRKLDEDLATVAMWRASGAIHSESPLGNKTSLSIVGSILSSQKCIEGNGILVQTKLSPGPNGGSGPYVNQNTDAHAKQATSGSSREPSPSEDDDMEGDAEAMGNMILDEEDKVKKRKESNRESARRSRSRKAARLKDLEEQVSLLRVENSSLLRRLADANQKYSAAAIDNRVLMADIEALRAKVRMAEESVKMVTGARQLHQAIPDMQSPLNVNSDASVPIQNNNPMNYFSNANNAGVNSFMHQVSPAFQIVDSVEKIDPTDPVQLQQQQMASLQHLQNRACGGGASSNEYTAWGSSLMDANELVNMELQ
Summary of the method: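 Binding signal is defined as the fluorescence intensity of each feature in arbitrary units, read on an Axon 4000B scanner. Transcription factors with N-terminal polyhistidine and DsRed fusions came from E. coli BL21-CodonPlus and were purified on Ni–NTA. They were incubated at 200 nM for 1 h at 25 °C on a custom Agilent array that had been made double-stranded with Cy5-dUTP, with 50 µM zinc acetate present, and the array was washed.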

“CAAACTCGTCAGCAATTCAGGCTGATATGATCTCATTTCACGGAGTCACCTAGTGCAG” was tested. Which binding signal did it give?
The binding signal was 4110 fluorescence intensity (a.u.).

Which binding signal does the source give for “GCAGTGGTGCGTGTGAGTTGTGACTCTCCACTTCCGTGTACGGAGTCACCTAGTGCAG” here?
The binding signal was 5660 fluorescence intensity (a.u.).

Which binding signal does the source give for “CTCATTCTCCCTTTCTTCCATTTTAGATTTTAATTTCTTCCGGAGTCACCTAGTGCAG” here?
The binding signal was 25900 fluorescence intensity (a.u.).

Which binding signal does the source give for “CCGACGCGCGCACCCGCTGCTTCGTCATCCAGGGCTCCGACGGAGTCACCTAGTGCAG” here?
The binding signal was 3730 fluorescence intensity (a.u.).

Which binding signal does the source give for “CCAGGGGCTGGGCGGGCACCGGACAAGCCACACGCGGCTGCGGAGTCACCTAGTGCAG” here?
Its binding signal is 3310 fluorescence intensity (a.u.).

“TCAATGTTGTAAATTAGACACCTGCAAGATACTCCCTCTGCGGAGTCACCTAGTGCAG” was tested. Which binding signal did it give?
Its binding signal is 23600 fluorescence intensity (a.u.).

“GAATGCTTTTGTTGTGGTCGGTCACCTTCGATCGGATGCACGGAGTCACCTAGTGCAG” was tested. Which binding signal did it give?
Its binding signal is 3510 fluorescence intensity (a.u.).

Which binding signal does the source give for “CTCGACTATGCCACGTCAGCGATTCGGTACAGTACTACAGCGGAGTCACCTAGTGCAG” here?
The binding signal was 14100 fluorescence intensity (a.u.).

How did the binding signal turn out when “ATATCAATCCAACGCATAGCAGTAGTCGACCGAGTAGACACGGAGTCACCTAGTGCAG” was run?
The binding signal was 3740 fluorescence intensity (a.u.).

For “CGCCTGCGATTGGCGGCGCGGTAGGAGGGGTGGTGCCGCCCGGAGTCACCTAGTGCAG”, which binding signal is on record?
The binding signal was 35600 fluorescence intensity (a.u.).

For “CATGGTGCTCACGTGACATGCTACATGGGTGTTGACTCATCGGAGTCACCTAGTGCAG”, which binding signal is on record?
Its binding signal is 5280 fluorescence intensity (a.u.).

“AGTGGTAGTGGTATCCACCTGTGCCATAAATATATCCTCCCGGAGTCACCTAGTGCAG” was tested. Which binding signal did it give?
The binding signal was 4060 fluorescence intensity (a.u.).

“CTGATCAGCAGCCACCACCACCGGTCACCCCTGCAGGCCTCGGAGTCACCTAGTGCAG” was tested. Which binding signal did it give?
The binding signal was 37000 fluorescence intensity (a.u.).

How did the binding signal turn out when “TCAATTTGACGTTAACAGTGCCACGAGTACAGCCAAACCGCGGAGTCACCTAGTGCAG” was run?
The binding signal was 3460 fluorescence intensity (a.u.).

With “GTATGTACAAAAGGGGAGAGAGGGTTACGTGTGGGAGGAGCGGAGTCACCTAGTGCAG” as the sequence, how does the binding signal read?
The binding signal was 3340 fluorescence intensity (a.u.).

How did the binding signal turn out when “TATTATCACAGTGACGTTGATAGTGTCTCTGGTCGCCTGACGGAGTCACCTAGTGCAG” was run?
Its binding signal is 4060 fluorescence intensity (a.u.).

With “TGACTGTATTGAAAGATAGTTGATGCATTTACGTAGTAGTCGGAGTCACCTAGTGCAG” as the sequence, how does the binding signal read?
The binding signal was 3270 fluorescence intensity (a.u.).

Which binding signal does the source give for “AAAATCCACGGCGCGGCGCCGTGGCCGTCGGATTTCCCGCCGGAGTCACCTAGTGCAG” here?
The binding signal was 3330 fluorescence intensity (a.u.).

How did the binding signal turn out when “ATGTTTAGTACTAGTTTCTCGATGATGTGGAGTTTATAGACGGAGTCACCTAGTGCAG” was run?
The binding signal was 6530 fluorescence intensity (a.u.).

“TAAGGAGGGTGTTGGGAGGGTGGGAGCTTTGCTTGGGGTGCGGAGTCACCTAGTGCAG” was tested. Which binding signal did it give?
The binding signal was 3950 fluorescence intensity (a.u.).

For “GTGAACTGGTGGTGTTCCGAGCTGTGGTCGCATATATATCCGGAGTCACCTAGTGCAG”, which binding signal is on record?
The binding signal was 3410 fluorescence intensity (a.u.).

Which binding signal does the source give for “TGAAAATATAGGGTATATATAATTGTAGAGATGACGTCGTCGGAGTCACCTAGTGCAG” here?
The binding signal was 3230 fluorescence intensity (a.u.).

For “TACACATATATCGCCCATATACGTCCACGTCAACACATTTCGGAGTCACCTAGTGCAG”, which binding signal is on record?
Its binding signal is 16000 fluorescence intensity (a.u.).

How did the binding signal turn out when “ATGTTTCTGCGGCCCGTCATCCGTGTTTGAGTCGGTTATACGGAGTCACCTAGTGCAG” was run?
Its binding signal is 4220 fluorescence intensity (a.u.).

For “CGTCGCCGCCAACTACGCCGACCTCACCACCGCCGCGTGGCGGAGTCACCTAGTGCAG”, which binding signal is on record?
The binding signal was 4720 fluorescence intensity (a.u.).

How did the binding signal turn out when “AAGCGCACGCACACATATGCCACGCATTGACGCATGGCACCGGAGTCACCTAGTGCAG” was run?
The binding signal was 5630 fluorescence intensity (a.u.).

For “ACCGCGCCGACCTCGACCTCACGCGCCTCGGCCGGCAAAGCGGAGTCACCTAGTGCAG”, which binding signal is on record?
The binding signal was 5650 fluorescence intensity (a.u.).

With “CACAAATTGTAAACATACTACCACCTCAGCTTGCTAGGCGCGGAGTCACCTAGTGCAG” as the sequence, how does the binding signal read?
The binding signal was 4370 fluorescence intensity (a.u.).

Which binding signal does the source give for “CCTGCTGACCAACCTACGCTAGCTATCTTCCTCTTGTCGTCGGAGTCACCTAGTGCAG” here?
The binding signal was 3940 fluorescence intensity (a.u.).

For “CTTCTTCCCATCAACACCATCGCCACATCACAAGCAGCCACGGAGTCACCTAGTGCAG”, which binding signal is on record?
Its binding signal is 4700 fluorescence intensity (a.u.).

With “CGCGTTGAGTGCAGCGTACGTGGAAGCCTTCCCAGCCTGTCGGAGTCACCTAGTGCAG” as the sequence, how does the binding signal read?
Its binding signal is 3360 fluorescence intensity (a.u.).

With “CAAGATGTCCAGCGCCGACGTGGAAGGGGCCGAGAAGGTGCGGAGTCACCTAGTGCAG” as the sequence, how does the binding signal read?
Its binding signal is 4240 fluorescence intensity (a.u.).

How did the binding signal turn out when “ATCTGGAGGAGAGGTGAGACGAGCGTGGCGGAGACCGGTGCGGAGTCACCTAGTGCAG” was run?
The binding signal was 3780 fluorescence intensity (a.u.).

How did the binding signal turn out when “TAACCGGTAGAGGCGTGTCATTCTGACGCGGACGGCCACTCGGAGTCACCTAGTGCAG” was run?
The binding signal was 8840 fluorescence intensity (a.u.).

Which binding signal does the source give for “TTTATACATATGTGTTTATCATACCTCACGTGTCGTATATCGGAGTCACCTAGTGCAG” here?
Its binding signal is 4720 fluorescence intensity (a.u.).

For “TGAGTGCAGCTACATCAAGATTCCGTCAGCATTTATGAATCGGAGTCACCTAGTGCAG”, which binding signal is on record?
Its binding signal is 5400 fluorescence intensity (a.u.).

“ATGTCCTCCTCTCGTTGACATCTTGACTTTCGTTGCCACCCGGAGTCACCTAGTGCAG” was tested. Which binding signal did it give?
Its binding signal is 24000 fluorescence intensity (a.u.).

With “CCCTAGAGGAGGGAAGGAGGAAGGGGATGGACAAAGTAGACGGAGTCACCTAGTGCAG” as the sequence, how does the binding signal read?
The binding signal was 3410 fluorescence intensity (a.u.).

“AAAGCAACTGCTAACTCGCAAAGGTGTCACCAAGTTGCCCCGGAGTCACCTAGTGCAG” was tested. Which binding signal did it give?
The binding signal was 3200 fluorescence intensity (a.u.).

For “TCGCCCACGGATTCCCCTCCACTCGCACTGTCAGTCTGTCCGGAGTCACCTAGTGCAG”, which binding signal is on record?
The binding signal was 4180 fluorescence intensity (a.u.).

For “CAAAACTCACGTGGGTATTCAAATTCGAACTATATACATCCGGAGTCACCTAGTGCAG”, which binding signal is on record?
The binding signal was 3530 fluorescence intensity (a.u.).

“TTTTGTTATTAGTCTACGTTTAATAATTCAAATACGTGTCCGGAGTCACCTAGTGCAG” was tested. Which binding signal did it give?
The binding signal was 3880 fluorescence intensity (a.u.).
